Some results were stated once for a whole list of compounds, not compound by compound.
Experiment: H2S generation in buffer, liver homogenate and liver homogenate with PAG, sulfide sensitive electrode
Assay type: in vitro ADME, rat
Settings: 1 mM of the compound, within 1 hour

## NC(=S)c1ccc(OC(=O)c2cc(N)ccc2O)cc1 [Compound XXVII, 5-Amino-2-hydroxy-benzoic acid 4-thiocarbamoyl-phenyl ester]
  Concentration of H2S produced: 10 to 20 µM

## Nc1ccc(O)c(C(=O)Oc2ccc(-c3cc(=S)ss3)cc2)c1 [Compound XXXV, 5-Amino-2-hydroxy-benzoic acid 4-(5-thioxo-5H-[1,2]dithiol-3-yl)-phenyl ester]
  Concentration of H2S produced: 10 to 20 µM

Source: US7910568B2, “Derivatives of 4- or 5-aminosalicylic acid” (Antibe Therapeutics Inc., priority 2005, dated 2011)
